Test results reported in paper PMC5694551, “Kir2.1-Nav1.5 Channel Complexes Are Differently Regulated than Kir2.1 and Nav1.5 Channels Alone” (Frontiers in Physiology, 2017).
No constants are given. Whether binding was seen depends on the method and setting. Binding seen in cells or lysates may run through a third protein. Some entries that bind do so weakly or less than the wild type.

Target: Nav1.5 channels of rat ventricular myocytes (rat (endogenous in ventricular myocytes)) (UniProt P15389)
Test: proximity ligation; Duolink PLA in fixed, non-permeabilized rat ventricular myocytes; primary antibodies against extracellular domains of Nav1.5 and Kir2.1; buffers without detergents; confocal microscopy; negative control without primary antibodies

B1: Kir2.1 channels of rat ventricular myocytes (natural protein, rat (endogenous in ventricular myocytes), UniProt Q64273 1-427, looked up)
chain: MGSVRTNRYSIVSSEEDGMKLATMAVANGFGNGKSKVHTRQQCRSRFVKKDGHCNVQFINVGEKGQRYLADIFTTCVDIRWRWMLVIFCLAFVLSWLFFGCVFWLIALLHGDLDASKESKACVSEVNSFTAAFLFSIETQTTIGYGFRCVTDECPIAVFMVVFQSIVGCIIDAFIIGAVMAKMAKPKKRNETLVFSHNAVIAMRDGKLCLMWRVGNLRKSHLVEAHVRAQLLKSRITSEGEYIPLDQIDINVGFDSGIDRIFLVSPITIVHEIDEDSPLYDLSKQDIDNADFEIVVILEGMVEATAMTTQCRSSYLANEILWGHRYEPVLFEEKHCYKVDYSRFHKTYEVPNTPLCSARDLAEKKYILSNANSFCYENEVALTSKEEEDSENGVPESTSTDSPPGIDLHNQASVPLEPRPLRRESEI
notes: Kir2.1 inward rectifier K+ channel, endogenous at the membrane of Sprague-Dawley rat ventricular myocytes; source: endogenous, isolated rat ventricular myocytes (fixed, non-permeabilized)
- binding: binds
